The supplement of paper PMC6411743
± gives the standard deviation of the averaged measurements. This is one part of the list.

By UniProt entry, the sequences of proteins in these tests, tags left out. Where a name states a change or a piece, a line headed by the entry shows the natural chain unless it says otherwise.
UniProt O95470: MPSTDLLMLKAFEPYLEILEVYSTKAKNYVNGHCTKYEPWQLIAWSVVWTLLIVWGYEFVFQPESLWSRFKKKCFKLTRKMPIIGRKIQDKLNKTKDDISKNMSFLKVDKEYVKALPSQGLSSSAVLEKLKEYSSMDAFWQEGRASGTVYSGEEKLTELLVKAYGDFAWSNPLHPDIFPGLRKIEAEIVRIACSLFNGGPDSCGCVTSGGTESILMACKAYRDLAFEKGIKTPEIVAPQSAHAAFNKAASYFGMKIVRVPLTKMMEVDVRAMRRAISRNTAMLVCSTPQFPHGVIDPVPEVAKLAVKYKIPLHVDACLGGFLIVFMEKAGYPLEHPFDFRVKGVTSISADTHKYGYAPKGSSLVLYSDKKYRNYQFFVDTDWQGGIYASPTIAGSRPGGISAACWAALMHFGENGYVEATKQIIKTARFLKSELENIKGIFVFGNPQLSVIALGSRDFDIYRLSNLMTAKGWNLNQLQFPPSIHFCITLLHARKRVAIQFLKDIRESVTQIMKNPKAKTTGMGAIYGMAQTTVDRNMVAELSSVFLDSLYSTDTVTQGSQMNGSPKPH
UniProt O75155: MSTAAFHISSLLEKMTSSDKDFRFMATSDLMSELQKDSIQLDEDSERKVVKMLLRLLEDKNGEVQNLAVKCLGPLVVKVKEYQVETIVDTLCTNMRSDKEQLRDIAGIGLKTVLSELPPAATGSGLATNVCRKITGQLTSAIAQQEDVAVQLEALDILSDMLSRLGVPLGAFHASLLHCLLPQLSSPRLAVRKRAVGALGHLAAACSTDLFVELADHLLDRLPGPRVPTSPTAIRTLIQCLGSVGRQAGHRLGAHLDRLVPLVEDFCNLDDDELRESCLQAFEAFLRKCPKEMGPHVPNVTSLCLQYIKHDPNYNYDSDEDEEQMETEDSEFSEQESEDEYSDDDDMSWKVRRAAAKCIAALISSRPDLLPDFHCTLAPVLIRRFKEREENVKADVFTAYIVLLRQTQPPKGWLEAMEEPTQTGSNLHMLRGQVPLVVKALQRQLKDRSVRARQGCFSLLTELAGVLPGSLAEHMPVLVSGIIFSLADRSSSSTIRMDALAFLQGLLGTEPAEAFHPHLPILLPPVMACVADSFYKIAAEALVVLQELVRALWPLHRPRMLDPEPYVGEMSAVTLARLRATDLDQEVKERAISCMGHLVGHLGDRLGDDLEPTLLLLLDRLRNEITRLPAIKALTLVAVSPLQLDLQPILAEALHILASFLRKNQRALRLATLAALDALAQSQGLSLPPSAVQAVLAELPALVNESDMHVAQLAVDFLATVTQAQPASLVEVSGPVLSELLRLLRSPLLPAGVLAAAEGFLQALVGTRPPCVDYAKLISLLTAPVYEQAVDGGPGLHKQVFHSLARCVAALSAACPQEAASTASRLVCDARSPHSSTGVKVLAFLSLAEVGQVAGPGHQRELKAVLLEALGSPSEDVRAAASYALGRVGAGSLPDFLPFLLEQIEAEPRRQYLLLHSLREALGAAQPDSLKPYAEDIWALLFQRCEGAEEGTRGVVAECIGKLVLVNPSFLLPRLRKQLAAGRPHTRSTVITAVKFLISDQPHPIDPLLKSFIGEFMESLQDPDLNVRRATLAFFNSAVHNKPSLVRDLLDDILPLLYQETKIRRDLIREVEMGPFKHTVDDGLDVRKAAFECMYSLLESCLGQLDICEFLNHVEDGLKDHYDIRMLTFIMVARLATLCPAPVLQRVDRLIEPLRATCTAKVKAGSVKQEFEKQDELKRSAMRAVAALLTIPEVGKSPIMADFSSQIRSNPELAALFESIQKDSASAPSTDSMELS
UniProt P05423: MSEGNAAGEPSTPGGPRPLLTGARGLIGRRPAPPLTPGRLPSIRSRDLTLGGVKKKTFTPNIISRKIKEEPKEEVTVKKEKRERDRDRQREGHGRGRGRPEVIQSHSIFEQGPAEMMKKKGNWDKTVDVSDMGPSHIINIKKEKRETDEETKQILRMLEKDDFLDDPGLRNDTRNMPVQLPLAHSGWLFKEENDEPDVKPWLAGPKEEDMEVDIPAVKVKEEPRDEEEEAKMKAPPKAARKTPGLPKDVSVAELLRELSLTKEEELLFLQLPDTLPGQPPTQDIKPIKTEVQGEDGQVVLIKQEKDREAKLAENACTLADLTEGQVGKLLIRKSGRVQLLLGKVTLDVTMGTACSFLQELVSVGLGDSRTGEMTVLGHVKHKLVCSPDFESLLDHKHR
UniProt O75376, whole entry: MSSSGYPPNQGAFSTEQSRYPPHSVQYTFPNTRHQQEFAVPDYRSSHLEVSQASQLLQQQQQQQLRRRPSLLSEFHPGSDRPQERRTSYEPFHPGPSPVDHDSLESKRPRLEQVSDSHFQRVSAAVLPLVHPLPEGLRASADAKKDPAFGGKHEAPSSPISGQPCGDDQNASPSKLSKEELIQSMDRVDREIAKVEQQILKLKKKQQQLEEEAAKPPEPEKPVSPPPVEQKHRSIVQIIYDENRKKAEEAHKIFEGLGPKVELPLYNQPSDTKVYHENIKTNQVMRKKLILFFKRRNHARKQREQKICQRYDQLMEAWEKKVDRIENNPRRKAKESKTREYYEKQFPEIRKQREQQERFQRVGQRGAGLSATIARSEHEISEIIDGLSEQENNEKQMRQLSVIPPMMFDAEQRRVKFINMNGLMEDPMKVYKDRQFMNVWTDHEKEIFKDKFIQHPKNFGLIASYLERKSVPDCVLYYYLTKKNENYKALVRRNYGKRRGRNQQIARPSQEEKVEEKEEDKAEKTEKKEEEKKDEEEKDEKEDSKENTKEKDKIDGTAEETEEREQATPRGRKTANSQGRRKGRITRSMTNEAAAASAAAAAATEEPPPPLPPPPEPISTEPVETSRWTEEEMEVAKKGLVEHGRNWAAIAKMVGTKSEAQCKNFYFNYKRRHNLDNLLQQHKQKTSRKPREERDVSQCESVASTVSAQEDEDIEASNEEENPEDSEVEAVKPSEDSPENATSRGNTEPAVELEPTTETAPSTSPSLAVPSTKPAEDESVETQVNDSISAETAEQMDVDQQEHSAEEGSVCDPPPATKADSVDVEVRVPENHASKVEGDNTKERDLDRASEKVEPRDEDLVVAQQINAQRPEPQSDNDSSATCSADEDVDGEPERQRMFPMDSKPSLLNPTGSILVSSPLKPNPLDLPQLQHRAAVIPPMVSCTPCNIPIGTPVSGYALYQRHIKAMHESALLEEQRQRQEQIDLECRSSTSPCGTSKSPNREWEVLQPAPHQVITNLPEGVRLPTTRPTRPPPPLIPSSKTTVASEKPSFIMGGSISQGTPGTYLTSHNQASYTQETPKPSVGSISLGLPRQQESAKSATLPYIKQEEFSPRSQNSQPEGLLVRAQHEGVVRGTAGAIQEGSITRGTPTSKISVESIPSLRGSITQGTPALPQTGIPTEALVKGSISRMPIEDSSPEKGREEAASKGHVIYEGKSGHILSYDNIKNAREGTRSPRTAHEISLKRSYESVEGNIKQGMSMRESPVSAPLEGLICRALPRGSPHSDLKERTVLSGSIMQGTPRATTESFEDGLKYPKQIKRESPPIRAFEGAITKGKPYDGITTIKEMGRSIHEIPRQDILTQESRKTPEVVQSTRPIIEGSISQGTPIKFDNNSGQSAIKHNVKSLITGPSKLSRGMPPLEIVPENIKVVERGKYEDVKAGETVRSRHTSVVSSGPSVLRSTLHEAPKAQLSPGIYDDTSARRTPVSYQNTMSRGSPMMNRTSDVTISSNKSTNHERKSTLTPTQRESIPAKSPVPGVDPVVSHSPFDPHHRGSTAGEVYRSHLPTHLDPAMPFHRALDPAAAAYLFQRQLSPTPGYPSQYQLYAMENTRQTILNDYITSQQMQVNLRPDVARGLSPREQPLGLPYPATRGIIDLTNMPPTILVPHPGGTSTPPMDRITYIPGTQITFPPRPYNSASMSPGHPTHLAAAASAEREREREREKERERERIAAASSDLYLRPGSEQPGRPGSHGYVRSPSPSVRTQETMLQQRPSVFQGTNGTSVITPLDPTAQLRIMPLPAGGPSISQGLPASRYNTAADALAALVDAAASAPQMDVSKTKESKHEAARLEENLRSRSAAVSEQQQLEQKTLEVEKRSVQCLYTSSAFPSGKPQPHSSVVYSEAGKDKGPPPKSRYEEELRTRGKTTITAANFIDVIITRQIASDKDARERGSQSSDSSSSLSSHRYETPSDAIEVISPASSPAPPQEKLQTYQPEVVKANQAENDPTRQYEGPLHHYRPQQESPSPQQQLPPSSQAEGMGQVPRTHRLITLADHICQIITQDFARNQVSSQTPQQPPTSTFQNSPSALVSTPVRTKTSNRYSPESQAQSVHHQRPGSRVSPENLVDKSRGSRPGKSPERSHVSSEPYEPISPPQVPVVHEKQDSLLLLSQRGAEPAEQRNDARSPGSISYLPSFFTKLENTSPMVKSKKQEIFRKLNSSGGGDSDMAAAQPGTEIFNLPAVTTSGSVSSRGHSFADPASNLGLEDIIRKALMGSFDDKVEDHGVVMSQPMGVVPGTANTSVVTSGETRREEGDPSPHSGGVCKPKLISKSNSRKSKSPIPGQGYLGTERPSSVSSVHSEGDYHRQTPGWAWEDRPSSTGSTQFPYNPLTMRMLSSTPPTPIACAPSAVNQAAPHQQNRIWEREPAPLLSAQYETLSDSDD
UniProt O95716: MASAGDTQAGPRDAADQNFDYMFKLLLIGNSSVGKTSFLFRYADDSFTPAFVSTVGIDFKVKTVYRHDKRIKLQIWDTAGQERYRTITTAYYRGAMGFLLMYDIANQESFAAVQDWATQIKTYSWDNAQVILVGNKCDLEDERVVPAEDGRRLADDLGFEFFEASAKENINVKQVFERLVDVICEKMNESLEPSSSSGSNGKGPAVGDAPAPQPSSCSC
UniProt O75683: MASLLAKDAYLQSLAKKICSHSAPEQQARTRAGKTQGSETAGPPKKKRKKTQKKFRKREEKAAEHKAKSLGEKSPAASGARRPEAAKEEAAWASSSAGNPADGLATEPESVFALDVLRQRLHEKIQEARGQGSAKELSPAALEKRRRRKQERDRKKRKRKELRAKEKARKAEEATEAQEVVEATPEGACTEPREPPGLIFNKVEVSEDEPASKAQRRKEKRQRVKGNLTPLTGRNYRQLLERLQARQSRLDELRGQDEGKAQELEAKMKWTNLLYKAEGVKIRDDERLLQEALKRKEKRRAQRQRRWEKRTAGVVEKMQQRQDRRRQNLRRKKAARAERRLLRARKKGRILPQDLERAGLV
UniProt O75368: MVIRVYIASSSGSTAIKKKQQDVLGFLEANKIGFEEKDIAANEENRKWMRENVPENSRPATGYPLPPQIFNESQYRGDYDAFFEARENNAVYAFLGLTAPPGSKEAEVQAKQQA
UniProt O95625: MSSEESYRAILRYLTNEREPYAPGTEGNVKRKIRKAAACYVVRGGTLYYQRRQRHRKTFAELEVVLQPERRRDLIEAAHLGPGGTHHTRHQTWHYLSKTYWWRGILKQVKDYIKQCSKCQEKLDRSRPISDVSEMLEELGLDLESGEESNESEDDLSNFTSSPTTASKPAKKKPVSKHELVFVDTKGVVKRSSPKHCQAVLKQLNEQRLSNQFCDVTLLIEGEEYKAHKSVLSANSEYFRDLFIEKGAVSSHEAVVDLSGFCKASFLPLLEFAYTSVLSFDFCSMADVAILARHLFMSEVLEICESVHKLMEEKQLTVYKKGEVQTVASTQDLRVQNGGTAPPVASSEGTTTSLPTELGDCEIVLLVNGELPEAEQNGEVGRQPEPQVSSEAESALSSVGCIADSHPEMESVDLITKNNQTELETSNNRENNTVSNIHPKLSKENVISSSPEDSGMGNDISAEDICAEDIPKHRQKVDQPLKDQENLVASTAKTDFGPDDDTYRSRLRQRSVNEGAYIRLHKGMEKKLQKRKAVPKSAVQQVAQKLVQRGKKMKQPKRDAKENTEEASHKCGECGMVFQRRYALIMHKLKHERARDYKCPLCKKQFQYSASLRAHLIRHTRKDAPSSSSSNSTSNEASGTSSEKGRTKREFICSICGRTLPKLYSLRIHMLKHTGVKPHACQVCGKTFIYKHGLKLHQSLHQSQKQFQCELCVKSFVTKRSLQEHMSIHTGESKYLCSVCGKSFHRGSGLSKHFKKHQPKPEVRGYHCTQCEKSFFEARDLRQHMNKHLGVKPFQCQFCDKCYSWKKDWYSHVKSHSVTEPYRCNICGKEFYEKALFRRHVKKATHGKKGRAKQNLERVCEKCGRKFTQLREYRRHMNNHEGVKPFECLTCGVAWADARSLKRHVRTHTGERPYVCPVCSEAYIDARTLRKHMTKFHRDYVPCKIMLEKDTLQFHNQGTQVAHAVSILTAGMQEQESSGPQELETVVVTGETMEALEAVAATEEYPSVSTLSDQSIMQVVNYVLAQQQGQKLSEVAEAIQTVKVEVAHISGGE

Compound: Nc1nc2c(ncn2[C@@H]2O[C@H](COP(=O)(O)OP(=O)(O)OP(=O)(O)O)[C@@H](O)[C@H]2O)c(=O)[nH]1 [guanosine triphosphate]
Assay: NP40-soluble protein abundance relative to vehicle (solubility fold change) (ratio); higher = more soluble protein in presence of GTP
Procedure, shortened: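 Eight concentrations, 0.1 to 10 mM, were tested on Jurkat crude lysate for 10 min at room temperature and then 3 min at 37 °C, in three independent experiments. The lysate was solubilised with 0.8% NP40 and benzonase, ultracentrifuged, and the supernatant TMT-labelled for LC-MS/MS. Each value is the fold change against the detergent-processed vehicle in its own replicate, from vsn-normalised intensities.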

Target | NP40-soluble protein abundance (concentration: 0.1mM) | NP40-soluble protein abundance (concentration: 0.5mM) | NP40-soluble protein abundance (concentration: 1mM) | NP40-soluble protein abundance (concentration: 2mM) | NP40-soluble protein abundance (concentration: 4mM) | NP40-soluble protein abundance (concentration: 6mM) | NP40-soluble protein abundance (concentration: 8mM) | NP40-soluble protein abundance (concentration: 10mM)
UniProt O75179 and related entries | 1.01 ± 0.025 | 1.04 ± 0.025 | 1.05 ± 0.038 | 1.03 ± 0.088 | 1.03 ± 0.086 | 1.07 ± 0.072 | 1.09 ± 0.084 | 1.05 ± 0.11
SGPL1 (UniProt O95470) | 0.986 ± 0.084 | 0.984 ± 0.061 | 0.963 ± 0.013 | 0.977 ± 0.04 | 1.04 ± 0.044 | 0.964 ± 0.028 | 0.958 ± 0.053 | 0.948 ± 0.049
UniProt O75155 and related entries | 1.05 ± 0.057 | 0.994 ± 0.027 | 0.973 ± 0.069 | 0.991 ± 0.024 | 1.01 ± 0.047 | 1 ± 0.026 | 0.993 ± 0.041 | 0.996 ± 0.036
POLR3D (UniProt P05423) | 1.03 ± 0.037 | 1.09 ± 0.037 | 1.12 ± 0.07 | 1.17 ± 0.066 | 1.19 ± 0.1 | 1.16 ± 0.086 | 1.21 ± 0.14 | 1.19 ± 0.14
UniProt O75376 and related entries | 0.993 ± 0.039 | 1.02 ± 0.05 | 1.05 ± 0.045 | 1.08 ± 0.079 | 1.1 ± 0.11 | 1.13 ± 0.1 | 1.17 ± 0.17 | 1.18 ± 0.17
RAB3D (UniProt O95716) | 1.1 ± 0.056 | 0.997 ± 0.084 | 0.9 ± 0.098 | 0.959 ± 0.13 | 0.915 ± 0.09 | 0.952 ± 0.052 | 0.854 ± 0.058 | 0.852 ± 0.12
UniProt P05165 and related entries | 1.06 ± 0.024 | 1.16 ± 0.04 | 1.09 ± 0.025 | 1.12 ± 0.033 | 1.15 ± 0.094 | 1.12 ± 0.084 | 1.12 ± 0.13 | 1.09 ± 0.12
SURF6 (UniProt O75683) | 1.05 ± 0.021 | 1 ± 0.013 | 1.05 ± 0.026 | 1.029 ± 0.0064 | 1.14 ± 0.022 | 1.08 ± 0.025 | 1.06 ± 0.067 | 1.11 ± 0.028
UniProt O94906 and related entries | 1.06 ± 0.055 | 1.17 ± 0.086 | 1.26 ± 0.17 | 1.42 ± 0.27 | 1.66 ± 0.44 | 1.91 ± 0.46 | 2.23 ± 0.58 | 2.34 ± 0.6
ALDOA (UniProt P04075) | 0.964 ± 0.034 | 0.971 ± 0.035 | 0.964 ± 0.046 | 0.918 ± 0.043 | 0.911 ± 0.05 | 0.914 ± 0.03 | 0.93 ± 0.054 | 0.911 ± 0.059
SH3BGRL (UniProt O75368) | 0.86 ± 0.16 | 0.897 ± 0.17 | 0.866 ± 0.12 | 0.878 ± 0.14 | 0.873 ± 0.17 | 0.87 ± 0.12 | 0.884 ± 0.15 | 0.89 ± 0.11
UniProt O95639 and related entries | 0.989 ± 0.087 | 1.1 ± 0.036 | 1.11 ± 0.11 | 1.22 ± 0.13 | 1.21 ± 0.15 | 1.3 ± 0.12 | 1.31 ± 0.19 | 1.34 ± 0.1
SYF2 (UniProt O95926) | 0.959 ± 0.14 | 0.932 ± 0.096 | 1.1 ± 0.14 | 1.1 ± 0.049 | 1.1 ± 0.1 | 1.09 ± 0.047 | 1.08 ± 0.12 | 1.18 ± 0.13
ZBTB11 (UniProt O95625) | 1.13 ± 0.069 | 1.1 ± 0.051 | 1.16 ± 0.074 | 1.17 ± 0.029 | 1.19 ± 0.027 | 1.19 ± 0.024 | 1.22 ± 0.047 | 1.196 ± 0.0072
UniProt P05026 and related entries | 0.967 ± 0.15 | 0.963 ± 0.05 | 1.03 ± 0.11 | 1.05 ± 0.089 | 1.02 ± 0.11 | 0.985 ± 0.082 | 1.01 ± 0.084 | 1.03 ± 0.061

Quoted from the listing (3 entries):
Target | NP40-soluble protein abundance (concentration: 0.1mM) | NP40-soluble protein abundance (concentration: 0.5mM) | NP40-soluble protein abundance (concentration: 1mM) | NP40-soluble protein abundance (concentration: 2mM) | NP40-soluble protein abundance (concentration: 4mM) | NP40-soluble protein abundance (concentration: 6mM) | NP40-soluble protein abundance (concentration: 8mM) | NP40-soluble protein abundance (concentration: 10mM)
UniProt O75155 and related entries | 1.05 ± 0.057 | 0.994 ± 0.027 | 0.973 ± 0.069 | 0.991 ± 0.024 | 1.01 ± 0.047 | 1 ± 0.026 | 0.993 ± 0.041 | 0.996 ± 0.036
POLR3D (UniProt P05423) | 1.03 ± 0.037 | 1.09 ± 0.037 | 1.12 ± 0.07 | 1.17 ± 0.066 | 1.19 ± 0.1 | 1.16 ± 0.086 | 1.21 ± 0.14 | 1.19 ± 0.14
UniProt O75376 and related entries | 0.993 ± 0.039 | 1.02 ± 0.05 | 1.05 ± 0.045 | 1.08 ± 0.079 | 1.1 ± 0.11 | 1.13 ± 0.1 | 1.17 ± 0.17 | 1.18 ± 0.17
